Tested on: Salmonella typhimurium TA104 pr1

Structure (SMILES): O=C1OCCN1/N=C/c1ccc([N+](=O)[O-])o1 [Furazolidone]
- Toxic (pri): −

Reference: patent US6472152B1 (priority 1998, dated 2002)
